Experimental data: PMC10495261
Results are given in words; binding and its absence hold for the method and conditions named. In cells and extracts the contact can be indirect. Some entries that bind do so weakly or less than the wild type.

Tests used:
[1] = molecular target: T1, RBFOX2 (human (endogenous in K562 and NB4)) (UniProt O43251); assay: co-IP; endogenous proteins from K562 lysate (50 mM Tris-HCl pH 7.5, 150 mM NaCl, 1% NP40); antibody-conjugated Protein G Dynabeads, 4 °C overnight; after RNase A/T1 treatment; western blot
T1 sequence: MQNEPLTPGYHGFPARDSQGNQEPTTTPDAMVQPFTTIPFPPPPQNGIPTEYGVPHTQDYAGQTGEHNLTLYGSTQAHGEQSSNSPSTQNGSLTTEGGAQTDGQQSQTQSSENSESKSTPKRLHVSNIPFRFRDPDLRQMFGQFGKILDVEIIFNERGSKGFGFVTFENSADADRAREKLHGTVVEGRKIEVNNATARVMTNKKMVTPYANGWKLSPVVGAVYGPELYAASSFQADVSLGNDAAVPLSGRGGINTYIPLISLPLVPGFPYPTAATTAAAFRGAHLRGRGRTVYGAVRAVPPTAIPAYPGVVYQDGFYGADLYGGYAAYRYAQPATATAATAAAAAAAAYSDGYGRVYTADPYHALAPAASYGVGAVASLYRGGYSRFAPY

[2] = molecular target: T1, RBFOX2 (human (endogenous in K562 and NB4)); assay: co-IP; endogenous proteins immunoprecipitated from NB4 cells, after RNase A/T1 treatment; western blot

binding [1]: binds
binding [2]: binds
B1: RBM15 (protein, UniProt Q96T37 1-977)
chain: MRTAGRDPVPRRSPRWRRAVPLCETSAGRRVTQLRGDDLRRPATMKGKERSPVKAKRSRGGEDSTSRGERSKKLGGSGGSNGSSSGKTDSGGGSRRSLHLDKSSSRGGSREYDTGGGSSSSRLHSYSSPSTKNSSGGGESRSSSRGGGGESRSSGAASSAPGGGDGAEYKTLKISELGSQLSDEAVEDGLFHEFKRFGDVSVKISHLSGSGSGDERVAFVNFRRPEDARAAKHARGRLVLYDRPLKIEAVYVSRRRSRSPLDKDTYPPSASVVGASVGGHRHPPGGGGGQRSLSPGGAALGYRDYRLQQLALGRLPPPPPPPLPRDLERERDYPFYERVRPAYSLEPRVGAGAGAAPFREVDEISPEDDQRANRTLFLGNLDITVTESDLRRAFDRFGVITEVDIKRPSRGQTSTYGFLKFENLDMSHRAKLAMSGKIIIRNPIKIGYGKATPTTRLWVGGLGPWVPLAALAREFDRFGTIRTIDYRKGDSWAYIQYESLDAAHAAWTHMRGFPLGGPDRRLRVDFADTEHRYQQQYLQPLPLTHYELVTDAFGHRAPDPLRGARDRTPPLLYRDRDRDLYPDSDWVPPPPPVRERSTRTAATSVPAYEPLDSLDRRRDGWSLDRDRGDRDLPSSRDQPRKRRLPEESGGRHLDRSPESDRPRKRHCAPSPDRSPELSSSRDRYNSDNDRSSRLLLERPSPIRDRRGSLEKSQGDKRDRKNSASAERDRKHRTTAPTEGKSPLKKEDRSDGSAPSTSTASSKLKSPSQKQDGGTAPVASASPKLCLAWQGMLLLKNSNFPSNMHLLQGDLQVASSLLVEGSTGGKVAQLKITQRLRLDQPKLDEVTRRIKVAGPNGYAILLAVPGSSDSRSSSSSAASDTATSTQRPLRNLVSYLKQKQAAGVISLPVGGNKDKENTGVLHAFPPCEFSQQFLDSPAKALAKSEEDYLVMIIVRGFGFQIGVRYENKKRENLALTLL
